Measured values taken from paper PMC11358016.
These are yes or no findings as the source states them, for the method shown. In cells and extracts the contact can be indirect. Some entries that bind do so weakly or less than the wild type.

By UniProt entry, the sequences of proteins in these tests, tags left out.
UniProt Q0KL00: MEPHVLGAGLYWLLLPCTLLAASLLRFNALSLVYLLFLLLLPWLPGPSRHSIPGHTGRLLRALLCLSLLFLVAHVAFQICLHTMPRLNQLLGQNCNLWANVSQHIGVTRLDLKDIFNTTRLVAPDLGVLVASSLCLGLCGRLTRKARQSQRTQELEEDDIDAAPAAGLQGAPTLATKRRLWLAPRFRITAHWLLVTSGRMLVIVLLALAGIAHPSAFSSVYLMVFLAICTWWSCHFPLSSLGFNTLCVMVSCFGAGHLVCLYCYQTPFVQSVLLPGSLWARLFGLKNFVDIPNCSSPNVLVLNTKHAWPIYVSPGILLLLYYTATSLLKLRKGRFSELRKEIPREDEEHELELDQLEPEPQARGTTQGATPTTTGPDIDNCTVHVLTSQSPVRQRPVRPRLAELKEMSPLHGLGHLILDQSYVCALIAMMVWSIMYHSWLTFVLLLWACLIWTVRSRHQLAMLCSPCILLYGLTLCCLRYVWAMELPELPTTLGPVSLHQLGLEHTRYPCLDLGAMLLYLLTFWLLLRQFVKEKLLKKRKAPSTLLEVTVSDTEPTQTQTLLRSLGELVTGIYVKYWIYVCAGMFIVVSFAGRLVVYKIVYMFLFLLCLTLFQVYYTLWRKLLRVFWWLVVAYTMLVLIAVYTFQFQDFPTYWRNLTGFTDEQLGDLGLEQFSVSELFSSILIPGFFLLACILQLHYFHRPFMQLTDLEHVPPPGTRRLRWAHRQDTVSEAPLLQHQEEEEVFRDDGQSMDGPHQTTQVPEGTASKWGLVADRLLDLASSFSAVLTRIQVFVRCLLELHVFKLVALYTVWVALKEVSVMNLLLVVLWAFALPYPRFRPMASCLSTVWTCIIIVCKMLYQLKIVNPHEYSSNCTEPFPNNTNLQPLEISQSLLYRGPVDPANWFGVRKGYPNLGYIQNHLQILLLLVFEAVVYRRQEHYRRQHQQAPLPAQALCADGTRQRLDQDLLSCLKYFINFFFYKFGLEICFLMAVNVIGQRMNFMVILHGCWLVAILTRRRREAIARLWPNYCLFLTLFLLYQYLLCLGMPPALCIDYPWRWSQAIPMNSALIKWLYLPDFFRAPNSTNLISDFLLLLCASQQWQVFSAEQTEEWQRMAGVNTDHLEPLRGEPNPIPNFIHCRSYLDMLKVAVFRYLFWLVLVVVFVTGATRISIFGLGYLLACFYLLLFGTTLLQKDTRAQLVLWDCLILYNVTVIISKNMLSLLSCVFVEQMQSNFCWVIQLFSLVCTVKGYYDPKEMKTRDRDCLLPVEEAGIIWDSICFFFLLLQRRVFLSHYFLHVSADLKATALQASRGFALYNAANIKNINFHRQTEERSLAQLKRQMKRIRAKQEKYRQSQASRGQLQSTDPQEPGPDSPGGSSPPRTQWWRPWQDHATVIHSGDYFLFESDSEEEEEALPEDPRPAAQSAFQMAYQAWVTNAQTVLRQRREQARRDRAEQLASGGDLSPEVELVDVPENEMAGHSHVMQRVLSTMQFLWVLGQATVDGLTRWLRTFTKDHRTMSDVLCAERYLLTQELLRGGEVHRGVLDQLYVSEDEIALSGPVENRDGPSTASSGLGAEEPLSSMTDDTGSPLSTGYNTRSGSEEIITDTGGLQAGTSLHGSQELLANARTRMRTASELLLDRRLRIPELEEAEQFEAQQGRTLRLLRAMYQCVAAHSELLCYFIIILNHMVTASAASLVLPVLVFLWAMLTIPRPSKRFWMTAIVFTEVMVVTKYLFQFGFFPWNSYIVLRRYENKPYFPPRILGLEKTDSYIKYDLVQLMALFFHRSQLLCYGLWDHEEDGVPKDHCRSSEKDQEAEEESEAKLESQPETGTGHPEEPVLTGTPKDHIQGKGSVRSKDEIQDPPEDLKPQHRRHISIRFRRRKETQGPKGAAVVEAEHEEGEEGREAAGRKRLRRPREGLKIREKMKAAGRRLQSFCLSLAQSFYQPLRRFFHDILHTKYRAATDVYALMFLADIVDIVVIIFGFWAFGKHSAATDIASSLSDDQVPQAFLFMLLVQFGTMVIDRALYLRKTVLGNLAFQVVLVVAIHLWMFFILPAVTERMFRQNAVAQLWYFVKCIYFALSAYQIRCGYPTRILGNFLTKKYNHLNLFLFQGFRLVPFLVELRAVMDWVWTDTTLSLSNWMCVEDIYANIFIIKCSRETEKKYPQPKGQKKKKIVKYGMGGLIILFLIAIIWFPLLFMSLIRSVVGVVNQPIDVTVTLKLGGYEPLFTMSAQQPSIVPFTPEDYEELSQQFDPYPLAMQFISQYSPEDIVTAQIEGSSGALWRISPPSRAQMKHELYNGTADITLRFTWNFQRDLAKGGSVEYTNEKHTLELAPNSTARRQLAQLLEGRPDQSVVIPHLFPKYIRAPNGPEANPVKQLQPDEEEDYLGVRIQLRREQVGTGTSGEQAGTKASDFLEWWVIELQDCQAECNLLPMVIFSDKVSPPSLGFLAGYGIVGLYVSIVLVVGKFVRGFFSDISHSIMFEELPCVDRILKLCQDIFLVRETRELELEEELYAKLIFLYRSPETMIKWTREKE
UniProt Q9ESQ5: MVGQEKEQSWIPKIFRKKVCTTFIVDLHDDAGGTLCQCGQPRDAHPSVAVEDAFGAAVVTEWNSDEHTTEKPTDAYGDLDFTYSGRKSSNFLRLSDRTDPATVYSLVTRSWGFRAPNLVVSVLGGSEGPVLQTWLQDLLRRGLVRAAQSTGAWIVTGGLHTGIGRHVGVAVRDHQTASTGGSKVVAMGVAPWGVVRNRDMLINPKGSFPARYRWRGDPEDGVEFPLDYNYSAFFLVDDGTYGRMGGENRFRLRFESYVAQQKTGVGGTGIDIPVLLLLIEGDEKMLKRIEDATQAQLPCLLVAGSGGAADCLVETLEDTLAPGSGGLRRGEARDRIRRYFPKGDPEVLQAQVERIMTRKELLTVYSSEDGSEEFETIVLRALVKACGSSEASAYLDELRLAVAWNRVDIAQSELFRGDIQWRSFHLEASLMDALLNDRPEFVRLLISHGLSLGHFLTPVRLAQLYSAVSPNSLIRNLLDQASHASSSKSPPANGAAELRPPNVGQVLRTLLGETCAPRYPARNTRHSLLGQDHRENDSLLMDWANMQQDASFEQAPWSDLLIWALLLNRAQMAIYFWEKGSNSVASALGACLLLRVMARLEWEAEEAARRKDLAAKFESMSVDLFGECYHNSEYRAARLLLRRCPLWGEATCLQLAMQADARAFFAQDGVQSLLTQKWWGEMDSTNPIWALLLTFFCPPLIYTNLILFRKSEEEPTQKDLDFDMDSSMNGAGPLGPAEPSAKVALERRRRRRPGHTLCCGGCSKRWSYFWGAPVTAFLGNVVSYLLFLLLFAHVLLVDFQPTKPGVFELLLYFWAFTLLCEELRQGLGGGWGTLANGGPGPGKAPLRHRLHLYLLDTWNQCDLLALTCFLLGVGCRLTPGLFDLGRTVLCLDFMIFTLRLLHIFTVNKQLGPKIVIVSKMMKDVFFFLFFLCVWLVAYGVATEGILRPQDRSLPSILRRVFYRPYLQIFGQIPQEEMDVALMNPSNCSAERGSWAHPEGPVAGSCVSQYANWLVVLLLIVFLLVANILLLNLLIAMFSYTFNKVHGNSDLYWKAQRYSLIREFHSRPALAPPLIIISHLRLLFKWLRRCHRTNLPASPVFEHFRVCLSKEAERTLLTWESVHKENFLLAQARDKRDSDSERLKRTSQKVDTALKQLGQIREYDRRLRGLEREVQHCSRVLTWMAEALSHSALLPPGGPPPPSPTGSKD

Target: Piezo1 mechanosensitive ion channel (rat (endogenous in H9c2)) (UniProt Q0KL00)
Experiment: co-IP; H9c2 cells lysed in 25 mM NaPIPES pH 7.2, 140 mM NaCl, 1 mM EDTA, 1% CHAPS, 0.5% phosphatidylcholine, 2 mM dithiothreitol; pre-cleared with protein G Dynabeads; anti-Piezo1 antibody or rabbit IgG at 4 °C overnight; western blot with anti-TRPM4

## transient receptor potential melastatin 4 (TRPM4) ion channel (from UniProt Q9ESQ5 1-1208)
  binding: binds
